Data: the supplement of paper PMC12819154, “High-throughput peptide-centric local stability assay extends protein–ligand identification to membrane proteins, tissues and bacteria” (Nature Structural & Molecular Biology, 2025)
The list shows a part of the results. Most entries show no effect beyond the scatter of the controls.

Protein sequences, listed by entry. Tags and fused reporters are not part of them. Lines headed by an entry give the natural chain unless they say otherwise; changes in a name come on top.
UniProt Q69ZF8: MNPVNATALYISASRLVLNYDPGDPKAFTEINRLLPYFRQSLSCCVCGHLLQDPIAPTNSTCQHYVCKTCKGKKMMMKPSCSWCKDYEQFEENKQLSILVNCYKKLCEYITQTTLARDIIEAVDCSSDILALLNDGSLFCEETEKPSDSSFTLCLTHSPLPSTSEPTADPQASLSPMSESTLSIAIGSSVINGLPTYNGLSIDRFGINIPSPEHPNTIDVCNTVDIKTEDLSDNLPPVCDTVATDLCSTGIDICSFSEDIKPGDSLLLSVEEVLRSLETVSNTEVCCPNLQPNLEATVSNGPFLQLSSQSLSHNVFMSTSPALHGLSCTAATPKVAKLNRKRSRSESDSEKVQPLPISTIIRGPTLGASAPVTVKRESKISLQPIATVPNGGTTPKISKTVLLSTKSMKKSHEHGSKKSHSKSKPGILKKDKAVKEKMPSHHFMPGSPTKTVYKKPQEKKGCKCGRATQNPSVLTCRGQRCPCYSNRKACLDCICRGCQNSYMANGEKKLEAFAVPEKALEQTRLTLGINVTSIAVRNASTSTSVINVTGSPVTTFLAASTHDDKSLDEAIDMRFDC
UniProt Q69ZB8: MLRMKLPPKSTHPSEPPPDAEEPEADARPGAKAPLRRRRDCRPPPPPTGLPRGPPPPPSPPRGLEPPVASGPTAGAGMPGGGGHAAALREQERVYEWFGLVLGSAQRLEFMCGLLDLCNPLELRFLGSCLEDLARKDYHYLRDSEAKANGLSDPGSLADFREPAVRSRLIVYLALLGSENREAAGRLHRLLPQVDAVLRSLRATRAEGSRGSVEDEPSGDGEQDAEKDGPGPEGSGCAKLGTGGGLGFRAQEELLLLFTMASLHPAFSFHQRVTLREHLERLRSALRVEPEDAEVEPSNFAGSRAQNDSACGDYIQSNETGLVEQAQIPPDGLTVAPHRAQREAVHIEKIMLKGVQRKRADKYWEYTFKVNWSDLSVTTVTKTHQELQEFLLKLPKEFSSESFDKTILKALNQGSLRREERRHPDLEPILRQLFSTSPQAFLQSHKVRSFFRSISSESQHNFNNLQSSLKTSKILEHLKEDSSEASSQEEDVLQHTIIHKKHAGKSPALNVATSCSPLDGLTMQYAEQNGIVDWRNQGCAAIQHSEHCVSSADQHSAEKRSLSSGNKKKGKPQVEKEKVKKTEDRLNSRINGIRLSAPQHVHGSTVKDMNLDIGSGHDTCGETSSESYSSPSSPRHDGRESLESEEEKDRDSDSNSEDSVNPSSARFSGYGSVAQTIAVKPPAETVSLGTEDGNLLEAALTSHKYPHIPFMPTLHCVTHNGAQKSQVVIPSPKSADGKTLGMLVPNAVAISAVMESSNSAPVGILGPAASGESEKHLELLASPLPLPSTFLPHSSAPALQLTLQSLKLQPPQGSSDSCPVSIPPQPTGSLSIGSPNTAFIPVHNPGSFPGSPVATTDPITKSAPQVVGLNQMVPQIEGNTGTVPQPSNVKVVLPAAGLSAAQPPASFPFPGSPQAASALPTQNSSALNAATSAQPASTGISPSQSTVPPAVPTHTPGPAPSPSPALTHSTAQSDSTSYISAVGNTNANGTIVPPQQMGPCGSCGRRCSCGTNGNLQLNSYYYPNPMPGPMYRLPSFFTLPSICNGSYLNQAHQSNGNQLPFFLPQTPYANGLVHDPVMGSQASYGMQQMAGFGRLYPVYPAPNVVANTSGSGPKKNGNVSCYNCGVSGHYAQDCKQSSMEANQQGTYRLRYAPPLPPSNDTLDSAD
UniProt Q63870: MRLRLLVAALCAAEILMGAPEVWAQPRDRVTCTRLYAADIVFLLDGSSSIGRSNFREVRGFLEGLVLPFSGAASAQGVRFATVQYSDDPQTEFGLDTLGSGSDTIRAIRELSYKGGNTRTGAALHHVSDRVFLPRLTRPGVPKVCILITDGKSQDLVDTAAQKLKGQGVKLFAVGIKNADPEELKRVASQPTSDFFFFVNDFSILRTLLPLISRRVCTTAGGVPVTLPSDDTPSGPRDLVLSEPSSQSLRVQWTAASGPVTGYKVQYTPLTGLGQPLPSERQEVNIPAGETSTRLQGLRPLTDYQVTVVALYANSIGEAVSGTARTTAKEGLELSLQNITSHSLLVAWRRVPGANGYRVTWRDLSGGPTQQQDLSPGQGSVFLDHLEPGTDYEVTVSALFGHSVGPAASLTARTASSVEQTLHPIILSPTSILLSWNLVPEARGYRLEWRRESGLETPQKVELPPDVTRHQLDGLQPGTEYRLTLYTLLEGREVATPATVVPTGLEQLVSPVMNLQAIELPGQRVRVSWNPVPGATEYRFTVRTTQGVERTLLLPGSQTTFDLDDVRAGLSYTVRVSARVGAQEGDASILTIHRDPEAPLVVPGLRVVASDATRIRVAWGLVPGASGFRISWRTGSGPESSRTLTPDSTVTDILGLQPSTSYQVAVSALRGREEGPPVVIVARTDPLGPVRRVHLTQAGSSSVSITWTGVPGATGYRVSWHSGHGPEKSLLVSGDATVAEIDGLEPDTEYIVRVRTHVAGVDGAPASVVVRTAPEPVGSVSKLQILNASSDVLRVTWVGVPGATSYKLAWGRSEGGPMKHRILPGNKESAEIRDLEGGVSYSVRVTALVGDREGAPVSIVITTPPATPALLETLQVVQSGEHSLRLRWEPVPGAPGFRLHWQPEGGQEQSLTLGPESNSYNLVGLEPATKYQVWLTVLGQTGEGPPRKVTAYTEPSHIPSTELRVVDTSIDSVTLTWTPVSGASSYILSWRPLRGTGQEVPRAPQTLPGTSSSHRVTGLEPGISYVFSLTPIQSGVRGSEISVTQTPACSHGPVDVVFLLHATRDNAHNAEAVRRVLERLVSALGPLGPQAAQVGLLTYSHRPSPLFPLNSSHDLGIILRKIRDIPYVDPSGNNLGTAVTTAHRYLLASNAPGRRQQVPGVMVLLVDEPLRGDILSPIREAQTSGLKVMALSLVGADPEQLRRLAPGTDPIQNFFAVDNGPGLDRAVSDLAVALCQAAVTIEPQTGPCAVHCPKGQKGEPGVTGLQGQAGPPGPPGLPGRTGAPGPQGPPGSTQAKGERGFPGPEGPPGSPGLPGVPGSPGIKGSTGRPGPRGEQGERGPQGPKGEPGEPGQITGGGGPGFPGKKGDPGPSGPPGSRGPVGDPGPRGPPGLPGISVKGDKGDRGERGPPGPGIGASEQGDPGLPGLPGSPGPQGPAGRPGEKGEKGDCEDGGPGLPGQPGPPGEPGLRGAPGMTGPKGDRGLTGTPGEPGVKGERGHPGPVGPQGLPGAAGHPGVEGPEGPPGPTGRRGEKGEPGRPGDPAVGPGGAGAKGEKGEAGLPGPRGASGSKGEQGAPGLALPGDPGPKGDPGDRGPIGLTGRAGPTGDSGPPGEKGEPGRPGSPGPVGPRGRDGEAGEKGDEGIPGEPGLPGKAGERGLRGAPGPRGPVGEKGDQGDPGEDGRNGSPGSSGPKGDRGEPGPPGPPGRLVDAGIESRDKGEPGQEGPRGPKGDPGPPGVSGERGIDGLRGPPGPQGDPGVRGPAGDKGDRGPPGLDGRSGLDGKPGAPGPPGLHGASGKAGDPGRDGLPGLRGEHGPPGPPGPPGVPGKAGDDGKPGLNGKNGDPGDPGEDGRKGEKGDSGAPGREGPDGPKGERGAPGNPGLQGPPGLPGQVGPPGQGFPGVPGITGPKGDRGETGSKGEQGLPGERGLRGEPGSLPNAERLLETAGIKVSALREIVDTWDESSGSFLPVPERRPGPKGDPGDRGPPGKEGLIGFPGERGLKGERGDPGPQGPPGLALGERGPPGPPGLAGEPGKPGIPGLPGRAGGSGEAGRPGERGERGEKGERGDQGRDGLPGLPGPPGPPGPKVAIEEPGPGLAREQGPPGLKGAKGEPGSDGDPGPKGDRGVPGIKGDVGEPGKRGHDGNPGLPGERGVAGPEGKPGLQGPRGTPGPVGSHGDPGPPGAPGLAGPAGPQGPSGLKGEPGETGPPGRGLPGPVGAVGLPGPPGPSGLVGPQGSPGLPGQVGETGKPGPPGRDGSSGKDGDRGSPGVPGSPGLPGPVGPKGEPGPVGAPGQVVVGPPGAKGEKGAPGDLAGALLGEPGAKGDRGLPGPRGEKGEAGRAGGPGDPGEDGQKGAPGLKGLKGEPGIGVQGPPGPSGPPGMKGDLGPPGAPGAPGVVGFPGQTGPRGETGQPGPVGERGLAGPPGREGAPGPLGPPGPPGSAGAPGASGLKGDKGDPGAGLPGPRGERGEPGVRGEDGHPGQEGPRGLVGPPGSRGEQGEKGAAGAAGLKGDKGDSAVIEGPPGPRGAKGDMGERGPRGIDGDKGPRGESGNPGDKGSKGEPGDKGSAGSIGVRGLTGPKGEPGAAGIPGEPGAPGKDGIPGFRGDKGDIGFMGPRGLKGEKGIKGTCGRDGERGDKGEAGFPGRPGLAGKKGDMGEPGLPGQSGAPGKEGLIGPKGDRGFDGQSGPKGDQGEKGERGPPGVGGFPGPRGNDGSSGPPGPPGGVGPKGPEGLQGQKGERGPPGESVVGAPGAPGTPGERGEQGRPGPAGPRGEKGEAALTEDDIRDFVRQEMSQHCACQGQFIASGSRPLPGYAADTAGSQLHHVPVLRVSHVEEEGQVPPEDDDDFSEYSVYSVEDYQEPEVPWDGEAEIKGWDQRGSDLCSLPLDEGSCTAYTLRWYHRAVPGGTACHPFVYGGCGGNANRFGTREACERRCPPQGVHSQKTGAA
UniProt Q61543: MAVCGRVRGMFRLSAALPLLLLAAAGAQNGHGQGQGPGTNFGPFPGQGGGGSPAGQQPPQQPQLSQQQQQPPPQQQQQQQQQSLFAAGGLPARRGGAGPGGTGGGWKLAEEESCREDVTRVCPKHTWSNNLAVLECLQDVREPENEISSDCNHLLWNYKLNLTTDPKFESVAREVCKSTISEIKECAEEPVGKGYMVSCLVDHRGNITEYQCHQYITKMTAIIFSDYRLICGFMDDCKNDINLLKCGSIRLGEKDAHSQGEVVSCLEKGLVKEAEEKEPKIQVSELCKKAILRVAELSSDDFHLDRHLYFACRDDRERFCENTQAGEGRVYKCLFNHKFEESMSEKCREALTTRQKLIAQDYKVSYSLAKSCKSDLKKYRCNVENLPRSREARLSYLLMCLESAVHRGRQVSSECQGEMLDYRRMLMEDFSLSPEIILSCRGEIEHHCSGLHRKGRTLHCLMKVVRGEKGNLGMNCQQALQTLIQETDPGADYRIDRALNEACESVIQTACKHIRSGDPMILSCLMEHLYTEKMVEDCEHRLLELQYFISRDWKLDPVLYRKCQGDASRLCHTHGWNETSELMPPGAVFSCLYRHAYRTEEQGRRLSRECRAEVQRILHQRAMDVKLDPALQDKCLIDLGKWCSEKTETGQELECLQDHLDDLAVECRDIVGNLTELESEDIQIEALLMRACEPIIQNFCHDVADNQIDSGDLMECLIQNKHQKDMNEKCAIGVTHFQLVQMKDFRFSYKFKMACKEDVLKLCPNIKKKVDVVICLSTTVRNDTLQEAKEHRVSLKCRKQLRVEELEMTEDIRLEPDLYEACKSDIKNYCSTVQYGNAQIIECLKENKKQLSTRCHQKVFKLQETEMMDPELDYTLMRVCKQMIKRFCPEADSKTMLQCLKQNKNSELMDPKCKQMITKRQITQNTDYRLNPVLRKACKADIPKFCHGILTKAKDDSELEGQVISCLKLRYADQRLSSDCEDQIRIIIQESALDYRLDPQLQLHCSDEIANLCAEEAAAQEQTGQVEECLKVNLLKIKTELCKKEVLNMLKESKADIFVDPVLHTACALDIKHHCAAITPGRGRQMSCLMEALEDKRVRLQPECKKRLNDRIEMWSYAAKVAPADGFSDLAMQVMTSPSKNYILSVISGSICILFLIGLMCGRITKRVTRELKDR
UniProt Q61655: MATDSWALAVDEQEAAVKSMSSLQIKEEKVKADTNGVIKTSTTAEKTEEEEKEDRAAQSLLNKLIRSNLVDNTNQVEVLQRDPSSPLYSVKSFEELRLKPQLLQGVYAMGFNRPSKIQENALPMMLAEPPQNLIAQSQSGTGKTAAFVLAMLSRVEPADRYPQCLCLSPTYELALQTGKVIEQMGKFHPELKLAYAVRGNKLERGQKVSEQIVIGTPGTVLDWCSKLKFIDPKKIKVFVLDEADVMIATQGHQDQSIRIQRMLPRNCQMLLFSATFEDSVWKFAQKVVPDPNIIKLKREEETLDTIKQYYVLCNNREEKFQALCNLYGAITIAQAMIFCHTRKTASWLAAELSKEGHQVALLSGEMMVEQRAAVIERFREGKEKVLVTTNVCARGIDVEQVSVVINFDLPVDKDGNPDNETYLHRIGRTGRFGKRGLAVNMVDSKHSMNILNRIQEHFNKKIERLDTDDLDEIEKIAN
UniProt Q62422: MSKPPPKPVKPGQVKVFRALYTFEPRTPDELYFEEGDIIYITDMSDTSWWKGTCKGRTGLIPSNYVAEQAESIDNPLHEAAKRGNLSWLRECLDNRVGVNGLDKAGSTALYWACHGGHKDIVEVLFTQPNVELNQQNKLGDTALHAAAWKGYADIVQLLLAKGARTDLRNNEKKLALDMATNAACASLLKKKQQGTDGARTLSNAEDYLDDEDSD

Compound: CN[C@@H]1C[C@H]2O[C@@](C)([C@@H]1OC)n1c3ccccc3c3c4c(c5c6ccccc6n2c5c31)C(=O)NC4 [staurosporine]
Assay: log2 fold change of tryptic peptide abundance, ligand vs vehicle (limited proteolysis) (log2 ratio); higher = more trypsin-susceptible (destabilized)
Settings: ligand concentration: 20 uM; sample: mouse liver crude lysate; replicate design: treated separately

Row | Target | log2 fold change
1 | UniProt Q69ZF8 (peptide sequence: MPSHHFMPGSPTK, peptide start residue: 438) | -0.394
2 | UniProt Q62511 (peptide sequence: YLQHHIK, peptide start residue: 329) | 0.189
3 | UniProt Q64704 (peptide sequence: KFVEVMTK, peptide start residue: 126) | 0.261
4 | UniProt Q69ZB8 (peptide sequence: LLPQVDAVLR, peptide start residue: 190) | -0.187
5 | UniProt Q63870 (peptide sequence: PGLAGKK, peptide start residue: 2643) | 0.118
6 | UniProt Q61543 (peptide sequence: QMSCLMEALEDKR, peptide start residue: 1085) | 0.519
7 | UniProt Q61655 (peptide sequence: TASWLAAELSK, peptide start residue: 344) | 0.27
8 | UniProt Q62422 (peptide sequence: ALYTFEPR, peptide start residue: 19) | -0.0883

Excerpt: nos. 2 to 3
Row | Target | log2 fold change
2 | UniProt Q62511 (peptide sequence: YLQHHIK, peptide start residue: 329) | 0.189
3 | UniProt Q64704 (peptide sequence: KFVEVMTK, peptide start residue: 126) | 0.261
